PubChem BioAssay AID652272 – Drosophila RNAi Screening Center | 2013
In all, the deposit lists about 21,000 reagents; shown is a random part of those that have a named target and a result. Over the whole deposit, 503 (2.4%) were called active. 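Raw plate light values, not normalised; calls rest on replicate z-scores that were not deposited; hits include reporter decreases as well as increases.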 The numbers tell different reagents against one gene apart. No sequences are given here. The record does not give: the amount of reagent, the time to read-out.

- Screen: 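Genome-wide knock-down search for components of Hedgehog signalling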 (primary screen)
- System: Drosophila clone 8 (Cl8) cells
- Reagent: long dsRNA against Drosophila genes
- Detection: 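Firefly light from a Hedgehog-responsive ptc promoter reporter and Renilla reference light, both read on a plate reader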
- Direction: firefly Hh reporter signal: higher = more ptc reporter light; Renilla reference signal: higher = more Renilla control light
- Rule for the call: 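Called a hit if the two-replicate mean z-score lies below -2 or above +3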
- Calls: active = hit: reporter lowered or raised; inactive = not a hit

CG6071 scored firefly Hh reporter signal, replicate 1 = 42784; firefly Hh reporter signal, replicate 2 = 47237; firefly Hh reporter signal, replicate 3 = 67611; Renilla reference signal, replicate 1 = 4004; Renilla reference signal, replicate 2 = 4128; inactive.
Against CG6733, the values are firefly Hh reporter signal, replicate 1 = 6.69e5; firefly Hh reporter signal, replicate 2 = 1.08e5; Renilla reference signal, replicate 1 = 36512; Renilla reference signal, replicate 2 = 3980; inactive.
After knock-down of pcs (parcas), the record shows firefly Hh reporter signal, replicate 1 = 1.72e5; firefly Hh reporter signal, replicate 2 = 77596; Renilla reference signal, replicate 1 = 6406; Renilla reference signal, replicate 2 = 1280; inactive.
Knock-down of eIF3j (eukaryotic translation initiation factor 3 subunit j) came out at: firefly Hh reporter signal, replicate 1 = 95832; firefly Hh reporter signal, replicate 2 = 43011; Renilla reference signal, replicate 1 = 3801; Renilla reference signal, replicate 2 = 1553; inactive.
With knock-down of CG15820 the results were firefly Hh reporter signal, replicate 1 = 1.05e5; firefly Hh reporter signal, replicate 2 = 56564; Renilla reference signal, replicate 1 = 4621; Renilla reference signal, replicate 2 = 2576; inactive.
CG30291 gave firefly Hh reporter signal, replicate 1 = 1.38e5; firefly Hh reporter signal, replicate 2 = 1.98e5; Renilla reference signal, replicate 1 = 8778; Renilla reference signal, replicate 2 = 6995; inactive.
Against Ns2 (Nucleostemin 2) the deposit lists firefly Hh reporter signal, replicate 1 = 86856; firefly Hh reporter signal, replicate 2 = 71571; Renilla reference signal, replicate 1 = 4739; Renilla reference signal, replicate 2 = 3557; inactive.
After knock-down of Ets98B (Ets at 98B) the results were firefly Hh reporter signal, replicate 1 = 1.29e5; firefly Hh reporter signal, replicate 2 = 1.67e5; Renilla reference signal, replicate 1 = 3569; Renilla reference signal, replicate 2 = 5737; inactive.
After knock-down of yellow-h, the screen gave firefly Hh reporter signal, replicate 1 = 60976; firefly Hh reporter signal, replicate 2 = 1.90e5; Renilla reference signal, replicate 1 = 1649; Renilla reference signal, replicate 2 = 7136; inactive.
CG8785 gave firefly Hh reporter signal, replicate 1 = 93851; firefly Hh reporter signal, replicate 2 = 52114; Renilla reference signal, replicate 1 = 4186; Renilla reference signal, replicate 2 = 2192; inactive.
For wupA (wings up A), the entry reads firefly Hh reporter signal, replicate 1 = 1.43e5; firefly Hh reporter signal, replicate 2 = 6.75e5; firefly Hh reporter signal, replicate 3 = 4.20e5; Renilla reference signal, replicate 1 = 5659; Renilla reference signal, replicate 2 = 6851; inactive.
For CG5646, the values are firefly Hh reporter signal, replicate 1 = 1.00e5; firefly Hh reporter signal, replicate 2 = 59392; Renilla reference signal, replicate 1 = 2380; Renilla reference signal, replicate 2 = 1744; inactive.
Against EMC6 (ER membrane protein complex subunit 6), the values are firefly Hh reporter signal, replicate 1 = 5.38e5; firefly Hh reporter signal, replicate 2 = 84231; Renilla reference signal, replicate 1 = 26616; Renilla reference signal, replicate 2 = 2528; inactive.
After knock-down of CG42523, the screen gave firefly Hh reporter signal, replicate 1 = 7.12e5; firefly Hh reporter signal, replicate 2 = 2.11e5; Renilla reference signal, replicate 1 = 33606; Renilla reference signal, replicate 2 = 7665; inactive.
For CG34459 the deposit lists firefly Hh reporter signal, replicate 1 = 63056; firefly Hh reporter signal, replicate 2 = 58741; Renilla reference signal, replicate 1 = 795; Renilla reference signal, replicate 2 = 3632; inactive.
Against Rcd1 (Reduction in Cnn dots 1), the values are firefly Hh reporter signal, replicate 1 = 69367; firefly Hh reporter signal, replicate 2 = 69896; Renilla reference signal, replicate 1 = 1255; Renilla reference signal, replicate 2 = 1048; active.
CG15631 showed firefly Hh reporter signal, replicate 1 = 1.05e5; firefly Hh reporter signal, replicate 2 = 69933; Renilla reference signal, replicate 1 = 2389; Renilla reference signal, replicate 2 = 4803; inactive.
Hmt-1 (Heavy metal tolerance factor 1) showed firefly Hh reporter signal, replicate 1 = 1.01e5; firefly Hh reporter signal, replicate 2 = 83744; Renilla reference signal, replicate 1 = 3926; Renilla reference signal, replicate 2 = 3420; inactive.
Depletion of CG7992 gave: firefly Hh reporter signal, replicate 1 = 72784; firefly Hh reporter signal, replicate 2 = 1.48e5; Renilla reference signal, replicate 1 = 2144; Renilla reference signal, replicate 2 = 6179; inactive.
After knock-down of Nep3 (Neprilysin 3), the screen gave firefly Hh reporter signal, replicate 1 = 61700; firefly Hh reporter signal, replicate 2 = 1.97e5; Renilla reference signal, replicate 1 = 1901; Renilla reference signal, replicate 2 = 8592; inactive.
Dcr-1 (Dicer-1) showed firefly Hh reporter signal, replicate 1 = 1.25e5; firefly Hh reporter signal, replicate 2 = 1.05e5; Renilla reference signal, replicate 1 = 5785; Renilla reference signal, replicate 2 = 4775; inactive.
Depletion of Lnpk (Lunapark) came out at: firefly Hh reporter signal, replicate 1 = 62564; firefly Hh reporter signal, replicate 2 = 58204; Renilla reference signal, replicate 1 = 2978; Renilla reference signal, replicate 2 = 2644; inactive.
For CG7164, the values are firefly Hh reporter signal, replicate 1 = 1.24e5; firefly Hh reporter signal, replicate 2 = 60529; Renilla reference signal, replicate 1 = 3027; Renilla reference signal, replicate 2 = 5389; inactive.
With knock-down of cpo (couch potato) #1 the results were firefly Hh reporter signal, replicate 1 = 52807; firefly Hh reporter signal, replicate 2 = 3.60e5; Renilla reference signal, replicate 1 = 11795; Renilla reference signal, replicate 2 = 8668; inactive.
cpo (couch potato) #2 scored firefly Hh reporter signal, replicate 1 = 51770; firefly Hh reporter signal, replicate 2 = 1.43e5; Renilla reference signal, replicate 1 = 11297; Renilla reference signal, replicate 2 = 4044; inactive.
Against cpo (couch potato) #3, the entry reads firefly Hh reporter signal, replicate 1 = 2.80e5; firefly Hh reporter signal, replicate 2 = 20589; Renilla reference signal, replicate 1 = 17705; Renilla reference signal, replicate 2 = 891; inactive.
Against cpo (couch potato) #4, the entry reads firefly Hh reporter signal, replicate 1 = 2.28e5; firefly Hh reporter signal, replicate 2 = 16118; Renilla reference signal, replicate 1 = 14243; Renilla reference signal, replicate 2 = 697; inactive.
Knock-down of cpo (couch potato) #5 gave: firefly Hh reporter signal, replicate 1 = 2.70e5; firefly Hh reporter signal, replicate 2 = 36962; Renilla reference signal, replicate 1 = 16304; Renilla reference signal, replicate 2 = 1181; inactive.

Records listed so far with an active call, once more:
Rcd1 (Reduction in Cnn dots 1): firefly Hh reporter signal, replicate 1 = 69367; firefly Hh reporter signal, replicate 2 = 69896; Renilla reference signal, replicate 1 = 1255; Renilla reference signal, replicate 2 = 1048; Call = active
